Consider one substance from patent publication US20180086789A1 (VALLAURIX PTE. LTD., priority 2015, published 2018).

This data set in a line: peptide synthesis. The note with it: whole synthesis, HPLC.

Non-standard residues stand in square brackets, D forms with d. hArg = N=C(N)NCCCC[C@H](N)C(=O)O; Nle = CCCC[C@H](N)C(=O)O

Ac-[Nle]EH[dF][hArg]W-NH2: the “purity (crude or final not stated)” value amounted to 100%.
